This note sets out measurements from paper PMC7442798.

The chains behind the UniProt entries cited, without tags or fusion partners.
UniProt Q14258: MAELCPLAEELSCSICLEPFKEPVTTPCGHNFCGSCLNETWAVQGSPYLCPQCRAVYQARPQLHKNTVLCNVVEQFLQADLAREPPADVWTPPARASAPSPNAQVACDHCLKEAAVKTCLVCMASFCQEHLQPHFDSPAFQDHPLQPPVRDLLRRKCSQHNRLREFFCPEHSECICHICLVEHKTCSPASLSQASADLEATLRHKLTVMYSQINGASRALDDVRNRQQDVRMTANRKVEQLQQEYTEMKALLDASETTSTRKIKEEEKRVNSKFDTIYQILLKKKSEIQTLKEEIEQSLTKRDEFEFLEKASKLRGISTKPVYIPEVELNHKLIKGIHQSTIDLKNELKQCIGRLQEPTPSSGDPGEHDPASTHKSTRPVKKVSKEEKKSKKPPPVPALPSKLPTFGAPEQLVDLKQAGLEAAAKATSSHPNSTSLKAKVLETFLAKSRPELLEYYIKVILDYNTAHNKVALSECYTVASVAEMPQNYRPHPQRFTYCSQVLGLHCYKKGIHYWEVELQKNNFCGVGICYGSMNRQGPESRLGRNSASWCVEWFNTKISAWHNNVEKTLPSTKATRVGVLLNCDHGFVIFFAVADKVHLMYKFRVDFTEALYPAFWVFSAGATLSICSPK

In the assay the target is T1, Flag-tagged wild-type OTUD5 (human) (UniProt Q96G74).
T1 sequence: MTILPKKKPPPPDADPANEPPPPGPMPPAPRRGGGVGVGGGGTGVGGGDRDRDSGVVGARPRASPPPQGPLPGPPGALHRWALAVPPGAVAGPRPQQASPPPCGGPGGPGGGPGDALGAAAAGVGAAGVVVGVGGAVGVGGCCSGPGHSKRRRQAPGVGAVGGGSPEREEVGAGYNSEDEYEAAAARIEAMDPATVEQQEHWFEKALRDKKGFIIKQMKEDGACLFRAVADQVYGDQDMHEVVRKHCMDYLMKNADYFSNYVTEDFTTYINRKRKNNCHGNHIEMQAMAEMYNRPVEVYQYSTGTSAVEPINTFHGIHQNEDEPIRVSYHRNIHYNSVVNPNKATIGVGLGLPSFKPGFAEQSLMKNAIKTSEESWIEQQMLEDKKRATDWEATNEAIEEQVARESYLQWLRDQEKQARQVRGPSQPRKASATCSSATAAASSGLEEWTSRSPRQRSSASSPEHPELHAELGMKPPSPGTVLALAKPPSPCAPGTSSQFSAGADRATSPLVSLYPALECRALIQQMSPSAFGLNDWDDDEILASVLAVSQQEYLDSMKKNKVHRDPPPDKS
Nature of the assay: affinity purification with mass spectrometry; nuclear extracts of the stable Flag-OTUD5/Hep3B cell line, Flag M2 immunoprecipitation, LC-MS/MS of the OTUD5-associated proteins.

No constants are given. Whether binding was seen depends on the method and setting. In cells and extracts the contact can be indirect. A yes stands for co-enrichment or nearness to the bait. Other partners may have been found. Tags and fused reporters may be left off the sequences shown.

Turning to “TRIM25 E3 ubiquitin ligase (from UniProt Q14258 1-630)”, the binding result is on record as “binds”.
